Experimental data taken from US20030100605A1, “Methods of treating cancer with angiogenesis inhibitors” (priority 2001, published 2003).

Tested on: B220+/Tg IgM+ donor-derived B cells in spleen and BM
Test: Lymphoid engraftment after stem cell rescue by flow cytometry
Type: in vivo, FVB mice
Details: for Bone Marrow B220+/IgM+ / Spleen B220+/IgM+: mean ± SEM
[1] = Day 28 post-BMT, all TNP-470 dose levels

Compound: CO[C@@H]1[C@H](OC(=O)NC(=O)CCl)CC[C@@]2(CO2)[C@H]1[C@]1(C)O[C@@H]1CC=C(C)C [TNP-470]
- Bone Marrow B220+/IgM+ [1]: 22% ± 1.8
- Spleen B220+/IgM+ [1]: 14% ± 1.4
- Lymphoid engraftment versus saline and no-pump controls (continuous infusion 10 mg/kg/week, day 28): no differences were observed
- Bone Marrow B220+/IgM+ (dose level 3, Day 21): 27% ± 4.1
- Spleen B220+/IgM+ (dose level 3, Day 21): 13% ± 2.8
- Bone Marrow B220+/IgM+ (dose level 3, Day 24): 25% ± 2.7
- Spleen B220+/IgM+ (dose level 3, Day 24): 31% ± 5.4
- Bone Marrow B220+/IgM+ (dose level 3, Day 28): 28% ± 4.2
- Spleen B220+/IgM+ (dose level 3, Day 28): 11% ± 2.0
